The results in this text go back to publication PMC8497546.

The chains behind the UniProt entries cited, without tags or fusion partners. Where a name states a change or a piece, a line headed by the entry shows the natural chain unless it says otherwise.
UniProt Q9Y397: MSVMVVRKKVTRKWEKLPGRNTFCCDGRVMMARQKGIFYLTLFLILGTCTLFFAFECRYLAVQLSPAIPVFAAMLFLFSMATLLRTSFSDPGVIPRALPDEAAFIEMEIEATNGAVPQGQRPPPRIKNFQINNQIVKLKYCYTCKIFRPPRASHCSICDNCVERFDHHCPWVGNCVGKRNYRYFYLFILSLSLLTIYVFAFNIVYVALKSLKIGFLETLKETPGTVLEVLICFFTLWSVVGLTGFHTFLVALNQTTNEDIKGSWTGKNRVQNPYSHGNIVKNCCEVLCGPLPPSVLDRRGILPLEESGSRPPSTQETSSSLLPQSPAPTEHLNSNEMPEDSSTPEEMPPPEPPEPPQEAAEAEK
UniProt P11166: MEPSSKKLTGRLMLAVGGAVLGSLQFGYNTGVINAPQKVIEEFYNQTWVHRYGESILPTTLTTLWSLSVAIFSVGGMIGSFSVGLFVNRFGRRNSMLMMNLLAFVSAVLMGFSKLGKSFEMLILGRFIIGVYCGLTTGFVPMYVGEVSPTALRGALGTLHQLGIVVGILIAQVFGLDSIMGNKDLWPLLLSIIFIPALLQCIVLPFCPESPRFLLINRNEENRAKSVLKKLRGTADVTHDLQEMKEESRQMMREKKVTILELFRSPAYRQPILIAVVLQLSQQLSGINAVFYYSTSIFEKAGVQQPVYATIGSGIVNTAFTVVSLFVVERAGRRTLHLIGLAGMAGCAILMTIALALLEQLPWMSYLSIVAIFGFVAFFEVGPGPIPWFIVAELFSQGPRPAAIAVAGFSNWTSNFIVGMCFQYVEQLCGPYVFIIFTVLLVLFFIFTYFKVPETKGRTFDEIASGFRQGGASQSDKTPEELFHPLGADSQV

The target in this experiment is DHHC9 in U87 and T98G cells (human) (UniProt Q9Y397). In words: co-IP; U87 and T98 cell lysates (50 mM Tris-HCl pH 7.5, 0.1% SDS, 1% Triton X-100, 150 mM NaCl, 1 mM DTT, 0.5 mM EDTA); specific antibodies overnight, protein A or G agarose beads 1 h at 4 °C; immunoblot. On the technique in general: In western blotting, separated proteins are transferred to a membrane and probed.

Results are given in words; binding and its absence hold for the method and conditions named. Binding seen in cells or lysates may run through a third protein. Some binding calls cover weakened binding; strength is not graded here.

In the case of “GLUT1 in U87 and T98G cells (from UniProt P11166 1-492)”, the binding entry is listed as “binds”.
